Laboratory results: PubChem BioAssay AID485353 (National Center for Advancing Translational Sciences (NCATS), 2010)
Among all 330,000 compounds or so, about 610 (0.18%) were called active. This list was built around the results that the source calls inconclusive (neither active nor inactive); the mix of calls is not that of the screen. Calls follow the shape of the full dose curve. Where the call is inconclusive, the potency comes from a doubtful curve fit.

Assay: qHTS of Yeast-based Assay for SARS-CoV PLP; also: nearly all actives have a fitted effect of over 55% in size; as to activity, positive = growth rescue: 0% is about no effect
Conditions: S. cerevisiae expressing SARS-CoV PLpro; Potency: growth rescue; activity, positive = growth rescue: at 32.9 µM (top of the series)
Potency is read from the fitted curve at half-maximal effect.

| Structure (SMILES) | activity, positive = growth rescue | Potency |
| --- | --- | --- |
| COc1ccc(Nc2nc(C)c3ccccc3n2)cc1 | inactive: -3.94% |  |
| COc1ccc(C2OC(=O)c3ccccc3S2)cc1 (configuration not stated) |  | inconclusive: 4.47 µM [activator, single point] |
| CC(C)CNS(=O)(=O)c1ccc(S(=O)(=O)N2CCC3(CC2)OCCO3)cc1 |  | inconclusive: 0.316 µM [activator, full curve, poor fit] |
| CC(C)(C)c1cc(CNC2CS(=O)(=O)C[C@@H]2O)cc(C(C)(C)C)c1O (some centres not stated) | inactive: -16.1% |  |
| COc1ccc(CCNC(=O)COC(=O)Cc2ccccc2F)cc1 |  | inconclusive: 3.98 µM [activator, full curve, poor fit] |
| O=C(C[n+]1ccccc1)N/N=C/c1ccc(C(=O)O)cc1 | inactive: -9.12% |  |
| Cc1cc(C(=O)Nc2cc(C(F)(F)F)ccc2N2CCOCC2)no1 |  | inconclusive: 1.41 µM [activator, partial curve] |
| CC(=O)OCC#CCSc1nc2ccccc2n1C |  | active: 22.4 µM |
| O=c1oc2cc(Oc3ccc(C(F)(F)F)cc3[N+](=O)[O-])ccc2c2c1CCC2 |  | inconclusive: 20 µM [activator, single point] |
| O=C(COC(=O)CNC(=O)c1ccccc1F)Nc1ccc2c(c1)OCCO2 |  | inconclusive: 22.4 µM [activator, partial curve, poor fit] |
| COC(=O)CCC(=O)OC1(C)C(=O)C2=CN(CC3CC3)C(c3ccc(OC)cc3)=CC2=C(Br)C1=O (configuration not stated) | inactive: 2.74% |  |
| CCOC(=O)c1ccc(S(=O)(=O)NNC(=O)Cc2csc(C)n2)cc1 | inactive: -3.82% |  |
| Cc1[nH]n(-c2ccccc2)c(=O)c1/C=N/NC(=O)c1cccc(F)c1 | inactive: 7.8% |  |
| Cc1ccccc1OCC(=O)NC(C)c1ccccc1 (configuration not stated) | inactive: 0.793% |  |
| CN(C1CCCCC1)S(=O)(=O)c1ccc(NC(=S)NC(=O)c2cccs2)cc1 |  | inconclusive: 2.51 µM [activator, full curve] |
| Cc1c(OCC(=O)NCc2ccncc2)ccc2c3c(c(=O)oc12)CCC3 |  | inconclusive: 22.4 µM [activator, single point] |
| Cn1c(CCNC(=O)c2cccs2)n[nH]c1=S |  | inconclusive: 20 µM [activator, single point] |
| CCOc1ncc(S(=O)(=O)N2CCN(CC)CC2)cc1C(=O)O |  | inconclusive: 3.55 µM [activator, single point] |
| O=C(Nc1c2c(nn1-c1ccccc1)CS(=O)C2)c1ccc(Br)o1 (configuration not stated) |  | inconclusive: 3.98 µM [activator, single point] |
| Cc1ccc(NC(=S)NCCc2ccc(Cl)cc2)c(C)c1 |  | inconclusive: 22.4 µM [activator, single point] |
| Cc1ncc(CO)c(/C=N/NC(=S)Nc2ccc(F)cc2)c1O |  | active: 5.62 µM |
| C[C@H](CO)N1C[C@H](C)[C@@H](CN(C)C(=O)Nc2ccccc2)Oc2c(NC(=O)NC3CCCCC3)cccc2C1=O |  | inconclusive: 3.98 µM [activator, single point] |
| O=c1c2ccccc2nc(COc2ccccc2)n1/N=C/c1ccc(O)cc1O |  | inconclusive: 17.8 µM [activator, single point] |
| O=C(c1cc2ccccc2[nH]1)N1CCOCC1 | inactive: 10.4% |  |

Structures above with a CF3 group (2):

| Structure (SMILES) | activity, positive = growth rescue | Potency |
| --- | --- | --- |
| Cc1cc(C(=O)Nc2cc(C(F)(F)F)ccc2N2CCOCC2)no1 |  | inconclusive: 1.41 µM [activator, partial curve] |
| O=c1oc2cc(Oc3ccc(C(F)(F)F)cc3[N+](=O)[O-])ccc2c2c1CCC2 |  | inconclusive: 20 µM [activator, single point] |

Continuation.

| Structure (SMILES) | activity, positive = growth rescue | Potency |
| --- | --- | --- |
| Cc1cc(Cl)ccc1NC(=S)NCCc1ccc(Cl)cc1 | inactive: -17.8% |  |
| COc1ccc(C)cc1N=Nc1ccc(O)c2ncccc12 |  | inconclusive: 1.78 µM [activator, full curve] |
| COc1ccc2cc(C(=O)C3CCCN(C4CCOCC4)C3)ccc2c1 (configuration not stated) | inactive: 0.108% |  |
| COc1cccc(-c2nc(CS(=O)(=O)CC(=O)Nc3cc(OC)ccc3OC)c(C)o2)c1 |  | inconclusive: 3.98 µM [activator, single point] |
| O=C(NC(=S)Nc1ccccc1)c1cncc(C#Cc2ccccc2)c1 | inactive: -0.98% |  |
| Nc1c2c(nc3ccc(Br)cc13)N(c1ccccc1)CC2 |  | inconclusive: 3.16 µM [activator, full curve] |
| CC1C(=O)N2CCCc3cc(NC(=O)C(=O)NCc4cccnc4)cc1c32 (configuration not stated) | inactive: 0.641% |  |
| COC(=O)C1=C(C)N(C)C(=S)NC1c1ccc(Cl)cc1 (configuration not stated) |  | inconclusive: 11.2 µM [activator, single point] |
| CC(=O)CCc1c(C)nc2ccc(C(=O)O)cc2c1Cl |  | inconclusive: 2.51 µM [activator, full curve] |
| C/C=C/c1ccc(OCCOCCOc2cccc3cccnc23)c(OC)c1 |  | inconclusive: 1.26 µM [activator, partial curve, poor fit] |
| Cc1cc(Cl)ccc1Oc1ncc(-c2ccc(Cl)cc2)cn1 | inactive: 2.29% |  |
| Clc1ccc2c(c1)C(c1ccccc1Cl)=NCc1nnc(Br)n1-2 |  | inconclusive: 20 µM [activator, single point] |
| Cn1nc([N+](=O)[O-])nc1Oc1ccc(C(C)(C)C)cc1 |  | inconclusive: 11.2 µM [activator, single point] |
| CC(C)(C)Cc1nnc(NC(=O)c2ccc([N+](=O)[O-])cc2)s1 |  | inconclusive: 20 µM [activator, single point] |
| CCc1cc(CNC(=O)C2CCC(=O)N(Cc3ccc(Cl)cc3)C2)on1 (configuration not stated) |  | inconclusive: 2.51 µM [activator, single point] |
| Cc1nn(-c2ccccn2)c(C)c1Oc1ccccc1O | inactive: 10.2% |  |
| CCOC(=O)N1CCN(C(=S)NC(=O)c2ccc(Br)cc2)CC1 |  | inconclusive: 14.1 µM [activator, single point] |
| CCN1C(=O)C(=O)c2cc(C)ccc21 |  | active: 11.2 µM |
| COCCNC(=S)N/N=C(\C)c1ccc(C)c([N+](=O)[O-])c1 |  | inconclusive: 20 µM [activator, single point] |
| CCn1c(=N)c(S(=O)(=O)c2ccc(C)cc2)cc2c(=O)n3ccccc3nc21 | inactive: -0.834% |  |
| Cc1ccc(NC(=O)CCN2C(=O)C3CCCCC3C2=O)cc1[N+](=O)[O-] (configuration not stated) |  | inconclusive: 3.98 µM [activator, single point] |
| COCc1ccc(C(=O)NC2CC(C)(C)Cc3c2cnn3-c2ccc(OC)cc2)o1 (configuration not stated) |  | inconclusive: 3.55 µM [activator, single point] |
| COc1cccc2[nH]c(C(=O)NCCCN3CCCC3=O)cc12 |  | inconclusive: 0.316 µM [activator, partial curve, poor fit] |
